According to patent US20260140287A1, “LIQUID CRYSTAL COMPOSITION, OPTICAL ABSORPTION ANISOTROPIC FILM, METHOD OF PRODUCING OPTICAL ABSORPTION ANISOTROPIC FILM, OPTICAL LAMINATE, AND IMAGE DISPLAY APPARATUS” (FUJIFILM Corporation, priority 2023, published 2026):

assay: Alignment degree of the light absorption anisotropic film (absorbance with linear polarizer, 400 nm to 700 nm); settings: light absorption anisotropic film from liquid crystal composition P1 with the listed dichroic substance in place of Y1

Structure (SMILES)	alignment degree
COC(C)(CCCCOc1ccc(/N=N/c2ccc(/N=N/c3ccc(/N=N/c4ccc(OCCCCC(C)(OC)OC)cc4Cl)cc3C)cc2)c(Cl)c1)OC [B-1]	AA (The alignment degree was 0.95 or more)
CCCCCCCCOc1ccc(C(=O)Oc2ccc(/N=N/c3ccc(/N=N/c4ccc(OCCCCC(C)(OC)OC)cc4C)cc3)cc2)cc1 [B-2]	A (The alignment degree was 0.93 or greater and less than 0.95)
C=CC(=O)OCCCCCCCCCOc1ccc(/N=N/c2cc3sc(/N=N/c4ccc(N(C)CCOC(=O)CCC(C)(OC)OC)cc4)nc3s2)cc1 [B-3]	A (The alignment degree was 0.93 or greater and less than 0.95)
COC(C)(CCCCOc1ccc(/N=N/c2ccc(/N=N/c3ccc(N(C)C)cc3)cc2)cc1)OC [B-4]	A (The alignment degree was 0.93 or greater and less than 0.95)
Cc1cc(/N=N/c2ccc(OCCCCC3(C)OCCO3)cc2)ccc1/N=N/c1ccc(/N=N/c2ccc(OCCCCC3(C)OCCO3)cc2)cc1 [B-5]	A (The alignment degree was 0.93 or greater and less than 0.95)
CCOC(C)OCCCCOc1ccc(/N=N/c2ccc(/N=N/c3ccc(/N=N/c4ccc(OCCCCOC(C)OC)cc4)cc3)c(C)c2)cc1 (stereo not shown) [B-6]	A (The alignment degree was 0.93 or greater and less than 0.95)
COC(CCCCOc1ccc(/N=N/c2ccc(/N=N/c3ccc(/N=N/c4ccc(OCCCCC(OC)OC)cc4)cc3C)cc2)cc1)OC [B-7]	A (The alignment degree was 0.93 or greater and less than 0.95)
Cc1cc(/N=N/c2ccc(OCCCCC(=O)OC(C)(C)C)cc2)ccc1/N=N/c1ccc(/N=N/c2ccc(OCCCCC(=O)OC(C)(C)C)cc2)cc1 [B-8]	A (The alignment degree was 0.93 or greater and less than 0.95)
CC(=O)OC(C)(C)CCCOc1ccc(/N=N/c2ccc(/N=N/c3ccc(/N=N/c4ccc(OCCCC(C)(C)OC(C)=O)cc4)cc3C)cc2)cc1 [B-9]	A (The alignment degree was 0.93 or greater and less than 0.95)
Cc1cc(/N=N/c2ccc(OCCCNC(=O)OC(C)(C)C)cc2)ccc1/N=N/c1ccc(/N=N/c2ccc(OCCCNC(=O)OC(C)(C)C)cc2)cc1 [B-10]	B (The alignment degree was 0.90 or greater and less than 0.83)
COC(C)(CCOCCOc1ccc(/N=N/c2ccc(/N=N/c3ccc(/N=N/c4ccc(OCCOCCC(C)(OC)OC)cc4)cc3C)cc2)cc1)OC [B-11]	A (The alignment degree was 0.93 or greater and less than 0.95)
Cc1cc(/N=N/c2ccc(OCCCCC(OCCC(F)(F)F)OCCC(F)(F)F)cc2)ccc1/N=N/c1ccc(/N=N/c2ccc(OCCCCC(OCCC(F)(F)F)OCCC(F)(F)F)cc2)cc1 [B-12]	A (The alignment degree was 0.93 or greater and less than 0.95)
Cc1cc(/N=N/c2ccc(OCCCCC(OCCC[Si](C)(C)C)OCCC[Si](C)(C)C)cc2)ccc1/N=N/c1ccc(/N=N/c2ccc(OCCCCC(OCCC[Si](C)(C)C)OCCC[Si](C)(C)C)cc2)cc1 [B-13]	A (The alignment degree was 0.93 or greater and less than 0.95)
CC(=O)CCCCOc1ccc(/N=N/c2ccc(/N=N/c3ccc(/N=N/c4ccc(OCCCCC(C)=O)cc4Cl)cc3C)cc2)c(Cl)c1 [HB-1, reference compound]	AA (The alignment degree was 0.95 or more)
CCOC(=O)CCCCOc1ccc(/N=N/c2ccc(/N=N/c3ccc(/N=N/c4ccc(OCCCCC(=O)OCC)cc4)cc3C)cc2)cc1 [HB-2, reference compound]	AA (The alignment degree was 0.95 or more)
C=CC(=O)CCCCCOc1ccc(/N=N/c2ccc(/N=N/c3ccc(/N=N/c4ccc(OCCCCOC(=O)C=C)cc4C)cc3C)cc2)c(C)c1 [HB-3, reference compound]	C (The alignment degree was less than 0.90)

Some compounds share one wording; it may come from a single statement.
